Reference: patent publication US7488825B2 (Kabushiki Kaisha Yakult Honsha, priority 2003, dated 2009)
Counter-ions that a name gives are not always drawn. Some entries share one result that the patent states for a list of compounds.

Test: Change of dissolution state over time (30 mg/mL in preparation solution)
Format: physicochemical
Conditions: 30 mg/mL filtrate, standing at 22° C. in the dark

| SMILES | stability of filtrate (no color-tone change, no precipitation) [months] |
| --- | --- |
| CCc1c2c(nc3ccc(OC(=O)N4CCC(N5CCCCC5)CC4)cc13)-c1cc3c(c(=O)n1C2)COC(=O)[C@]3(O)CC [b-type crystals, irinotecan hydrochloride] | ≥ 3 |
| CCc1c2c(nc3ccc(OC(=O)N4CCC(N5CCCCC5)CC4)cc13)-c1cc3c(c(=O)n1C2)COC(=O)[C@]3(O)CC [No. 3, irinotecan hydrochloride] | ≥ 3 |
